# In all, about 400,000 compounds went through this assay and about 3,700 (0.93%) were called active. The inconclusive results got no clear call from the source; some entries with a clear call stand among them for comparison. Calls come from the whole dose curve; as a rule, active = well fitted inhibition curve with a large enough effect; inconclusive = small, poorly fitted or top-dose-only effect, or another doubt; inactive = no such curve, though single readings can be large or run the other way. A potency beside an inconclusive call is a rough fit, not a confirmed value.
# Chains of the proteins cited; added tags and fusions are not shown. Lines headed by an entry give the natural chain unless they say otherwise; changes in a name come on top.
# UniProt P11473: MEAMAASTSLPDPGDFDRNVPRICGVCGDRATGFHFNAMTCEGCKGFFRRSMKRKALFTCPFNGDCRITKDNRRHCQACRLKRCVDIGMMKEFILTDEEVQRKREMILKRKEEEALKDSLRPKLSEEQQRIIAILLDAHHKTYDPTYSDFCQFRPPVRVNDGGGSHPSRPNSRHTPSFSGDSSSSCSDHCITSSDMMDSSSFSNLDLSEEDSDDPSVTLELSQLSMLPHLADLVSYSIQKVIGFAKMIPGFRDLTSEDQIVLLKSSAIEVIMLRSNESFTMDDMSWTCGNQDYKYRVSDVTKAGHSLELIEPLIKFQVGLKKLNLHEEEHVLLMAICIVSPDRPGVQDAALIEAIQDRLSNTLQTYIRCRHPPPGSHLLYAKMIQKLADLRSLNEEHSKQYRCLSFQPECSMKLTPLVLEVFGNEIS
# Target: Vitamin D3 receptor (Homo sapiens) (UniProt P11473)
# Assay: Inhibitors of the vitamin D receptor (VDR): qHTS
# Conditions: VDR-SRC2-3 peptide fluorescence polarization, 2 h; max response, negative = inhibition: active compounds read low
# Method in brief: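 After 23 nl compound addition and a short centrifugation, plates sat for 2 hours at ambient temperature; polarization of fluorescence then indicated loss of VDR binding to peptide SRC2-3.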
# % is set by controls: 0 for no effect and ±100 for the full control effect; potency is the fitted concentration of half-maximal effect.
SMILES,Potency,"max response, negative = inhibition"
S=c1cnc2ccccc2[nH]1,"inconclusive: 89.1 µM [inhibitor, single point]",–
CC(=O)Nc1ccc(SCC(Cc2ccccc2)N2CCN(CCc3ccccc3)CCC2=O)cc1 (stereo not drawn),"inconclusive: 56.2 µM [inhibitor, partial curve, poor fit]",–
O=C(O)c1ccc2c(c1)[C@@H]1C=CC[C@@H]1[C@H](c1ccccn1)N2,"inconclusive: 50.1 µM [inhibitor, partial curve]",–
Cn1c(N)c(C(=O)COC(=O)/C=C/c2ccc(Cl)c(Cl)c2)c(=O)n(C)c1=O,"inconclusive: 39.8 µM [inhibitor, single point]",–
Cc1[nH]n(-c2ccccc2)c(=O)c1/C=N/N(c1ccccc1)c1ccccc1,"inconclusive: 70.8 µM [inhibitor, single point]",–
COC(=O)c1sccc1NC(=S)Nc1cccc(F)c1,–,inactive: 4.69%
CC(C)CCn1c(COc2ccccc2)n[nH]c1=S,–,inactive: -2.04%
CCOC(=O)C1=NO[C@@]2(C=C(Br)C(=O)[C@H]3O[C@H]32)C1,active: 11.2 µM,–
Fc1cc(Br)ccc1Nc1c2c(nc3nc(-c4cccs4)nn13)CCCC2,–,inactive: 18.2%
CCCCCCCCCCS(=O)(=O)N/N=C/c1ccc(O)cc1,"inconclusive: 39.8 µM [inhibitor, partial curve, poor fit]",–
O=C(Nc1ccc(S(=O)(=O)N2CCCCC2)cc1)C1CC(=O)N(c2ccc(F)cc2)C1 (stereo not drawn),"inconclusive: 25.1 µM [inhibitor, partial curve, poor fit]",–
COc1ccc(/C=C/C(=O)c2cc(F)ccc2OC(=O)c2ccccc2OC)cc1OC,"inconclusive: 56.2 µM [inhibitor, partial curve, poor fit]",–
S=C(c1ccc(-c2ccccc2)o1)N1CCCCC1,"inconclusive: 89.1 µM [inhibitor, single point]",–
O=S(=O)(c1ccc(F)cc1)N1CCN(S(=O)(=O)c2cc(F)ccc2F)CC1,"inconclusive: 79.4 µM [inhibitor, single point]",–
COc1cccc(OCc2cc(C(=O)N3CCC(C(O)C(C)C)CC3)no2)c1 (stereo not drawn),–,inactive: 10.9%
CCN(CC)c1ccc(N=Cc2ccc([N+](=O)[O-])o2)cc1,"inconclusive: 2.82 µM [inhibitor, full curve, poor fit]",–
O=C(/C=C/c1ccco1)NCC(=O)N/N=C/c1ccc([N+](=O)[O-])cc1,"inconclusive: 25.1 µM [inhibitor, single point]",–
CCn1c(-c2ccccc2)csc1=Nc1ccc(S(=O)(=O)O)cc1,"inconclusive: 50.1 µM [inhibitor, partial curve]",–

# 5 entries already listed, ordered by heavy-atom count, descending.
SMILES,Potency,"max response, negative = inhibition"
O=C(Nc1ccc(S(=O)(=O)N2CCCCC2)cc1)C1CC(=O)N(c2ccc(F)cc2)C1 (stereo not drawn),"inconclusive: 25.1 µM [inhibitor, partial curve, poor fit]",–
O=S(=O)(c1ccc(F)cc1)N1CCN(S(=O)(=O)c2cc(F)ccc2F)CC1,"inconclusive: 79.4 µM [inhibitor, single point]",–
CCCCCCCCCCS(=O)(=O)N/N=C/c1ccc(O)cc1,"inconclusive: 39.8 µM [inhibitor, partial curve, poor fit]",–
CCN(CC)c1ccc(N=Cc2ccc([N+](=O)[O-])o2)cc1,"inconclusive: 2.82 µM [inhibitor, full curve, poor fit]",–
CCOC(=O)C1=NO[C@@]2(C=C(Br)C(=O)[C@H]3O[C@H]32)C1,active: 11.2 µM,–
